Measurements from PubChem BioAssay AID2685 (National Center for Advancing Translational Sciences (NCATS), 2010).
Some of the results follow. Further columns of the screen follow, without active or inactive calls. The list favours compounds with an active or inconclusive main result. Potencies come from curve fits of mixed quality, noted in brackets.

Assay: qHTS Assay for Lipid Storage Modulators in Drosophila S3 Cells;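 on cell number change: cells counted by Cell Tracker Red CMTPX staining in the red channel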
Details: BODIPY lipid droplet fluorescence, 18-24 h; for cell number change: measured here: cell count max response, cells fed with added oleic acid
Outline: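 Drosophila S3 cells got compounds at several concentrations plus oleic acid (400 uM solution). Laser-scanning cytometry with 488 nm excitation read lipid droplets at 500-530 nm and cells at 575-640 nm. Percent activity was relative to 20 uM Triacsin C.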

[1] = measured here: lipid fluorescence (Fed channel) AC50, cells fed with added oleic acid
[2] = measured here: cell number channel AC50, cells fed with added oleic acid

Compound | cell number change [%] | AC50 [1] | AC50 [2]
Oc1c(C(c2ccco2)N2CCN(C(c3ccccc3)c3ccccc3)CC2)sc2ncnn12 (stereo not given) | -3.44 | 3.66 µM [falling, partial curve] | 
O=C(Nc1cccc(Cl)c1)N(Cc1nc2ccccc2c(=O)[nH]1)C1CCCC1 | 18.5 |  | 0.259 µM [rising, full curve, poor fit]
Cc1ccc(NC(=O)OCCN2CCN(Cc3ccccc3)CCC2=O)cc1C | 4.64 | 3.66 µM [rising, full curve] | 
Cc1ccc(NC(=O)CSc2nnc(-c3cccnc3)n2CCN2CCCCC2)cc1 | 16.6 | 29.1 µM [rising, single point] | 
CCN(C(=O)COC(=O)C1=COCCO1)c1ccccc1 | 1.52 | 7.31 µM [rising, partial curve, poor fit] | 
Cc1cccc(Oc2cnn(C(C)(C)C)c(=O)c2Cl)c1 | -40.8 | 16.4 µM [falling, single point] | 16.4 µM [falling, single point]
CCOC(=O)C1(CCc2ccccc2)CCN(C(=O)[C@@H]2C[C@@H](C)NC(=S)N2)CC1 | 1.06 | 1.3 µM [rising, full curve] | 
COc1ccc(CNc2ccc(Br)cc2)cc1 | -21.6 | 29.1 µM [falling, single point] | 
COc1ccc(C(=O)Nc2ccc(N3CCCCC3)cc2)cc1Br |  |  | 0.00411 µM [rising, full curve, poor fit]
CCN(CC)S(=O)(=O)c1ccc(Cl)c(C(=O)Oc2cccc(-c3cnc4ccccc4n3)c2)c1 |  | 23.1 µM [falling, partial curve] | 1.84 µM [falling, partial curve, poor fit]
N#CC1=C(N)NC(SCc2ccc(F)cc2)=C(C#N)C12CCCCC2 |  | 0.259 µM [rising, full curve] | 0.231 µM [rising, full curve]
CCCCC(=O)Nc1sc2c(c1C(=O)OCC)CCC(C=O)=C2Cl | 56.5 |  | 29.1 µM [rising, single point]
O=S(=O)(c1cc(-c2nc3ccccc3s2)ccc1Cl)N1CCOCC1 | -15.4 | 6.51 µM [falling, single point] | 
COc1ccc(NC(=O)NC(C)(C(F)(F)F)C(F)(F)F)cc1 |  | 29.1 µM [rising, single point] | 
COc1ccc(S(=O)(=O)NNC(=O)C2CC(c3cccnc3)=NO2)cc1 (stereo not given) | -3 |  | 
COc1ccccc1NC(=O)c1cc2ccccc2o/c1=N\O | -24 | 2.91 µM [falling, partial curve] | 

Retrieved by compound from the list above (2):
Compound | cell number change [%] | AC50 [1] | AC50 [2]
Cc1cccc(Oc2cnn(C(C)(C)C)c(=O)c2Cl)c1 | -40.8 | 16.4 µM [falling, single point] | 16.4 µM [falling, single point]
Oc1c(C(c2ccco2)N2CCN(C(c3ccccc3)c3ccccc3)CC2)sc2ncnn12 (stereo not given) | -3.44 | 3.66 µM [falling, partial curve] | 
